# Reference: patent publication US6743609B1, “Linoleate isomerase” (Arkion Life Sciences LLC, priority 1997, dated 2004)
# Read-outs that look alike come from different tables or passages of the source. Some entries repeat one wording, which the source may state once for all of them. Where a SMILES comes first, the peptide text is derived from it. [ ]: non-standard residue; d: D form. The star is where a group is joined. Sta = CC(C)C[C@H](N)[C@@H](O)CC(=O)O; Isovaleryl = CC(C)CC(=O)*
# System: C. sporogenes ATCC 25762 linoleate isomerase
# Experiment: Stability of C. sporogenes linoleate isomerase
# Format: biochemical, Clostridium sporogenes
# Conditions: for effect on enzyme activity and stability: crude extracts
smiles,measurement,setting,value
"c1cnc2c(c1)ccc1cccnc12 [1,10-phenanthroline]",effect on enzyme activity and stability,,protected
O=C(O)CN(CCN(CC(=O)O)CC(=O)O)CC(=O)O [EDTA],effect on enzyme activity and stability,1 mM,negative effect
O=S(=O)(F)Cc1ccccc1 [PMSF],effect on the stability of isomerase,0.1-1.0 mM,None provided measurable benefit
NC(=O)CI [iodoacetamide],effect on the stability of isomerase,1 mM,None provided measurable benefit
CC(C)CC(=O)N[C@H](C(=O)N[C@H](C(=O)N[C@@H](CC(C)C)[C@@H](O)CC(=O)N[C@@H](C)C(=O)N[C@@H](CC(C)C)[C@@H](O)CC(=O)O)C(C)C)C(C)C [pepstatin A] (Isovaleryl-VV[Sta]A[Sta]-OH),effect on the stability of isomerase,,None provided measurable benefit
